Reference: the supplement of paper PMC3334620
The full ranking holds about 33,000 sequences; the median of “E-score (-0.5 to 0.5)” is about -0.016, and the highest 2% start at about 0.3. Some of the results follow.

Each sequence was assayed against T1, Yer184c (UniProt P39961) (assay: PBM E-score (8-mer binding enrichment) (E-score (-0.5 to 0.5)); higher = stronger / more preferred TF binding). Conditions: protein concentration: 100 nM; construct: GST-full length.
T1 sequence: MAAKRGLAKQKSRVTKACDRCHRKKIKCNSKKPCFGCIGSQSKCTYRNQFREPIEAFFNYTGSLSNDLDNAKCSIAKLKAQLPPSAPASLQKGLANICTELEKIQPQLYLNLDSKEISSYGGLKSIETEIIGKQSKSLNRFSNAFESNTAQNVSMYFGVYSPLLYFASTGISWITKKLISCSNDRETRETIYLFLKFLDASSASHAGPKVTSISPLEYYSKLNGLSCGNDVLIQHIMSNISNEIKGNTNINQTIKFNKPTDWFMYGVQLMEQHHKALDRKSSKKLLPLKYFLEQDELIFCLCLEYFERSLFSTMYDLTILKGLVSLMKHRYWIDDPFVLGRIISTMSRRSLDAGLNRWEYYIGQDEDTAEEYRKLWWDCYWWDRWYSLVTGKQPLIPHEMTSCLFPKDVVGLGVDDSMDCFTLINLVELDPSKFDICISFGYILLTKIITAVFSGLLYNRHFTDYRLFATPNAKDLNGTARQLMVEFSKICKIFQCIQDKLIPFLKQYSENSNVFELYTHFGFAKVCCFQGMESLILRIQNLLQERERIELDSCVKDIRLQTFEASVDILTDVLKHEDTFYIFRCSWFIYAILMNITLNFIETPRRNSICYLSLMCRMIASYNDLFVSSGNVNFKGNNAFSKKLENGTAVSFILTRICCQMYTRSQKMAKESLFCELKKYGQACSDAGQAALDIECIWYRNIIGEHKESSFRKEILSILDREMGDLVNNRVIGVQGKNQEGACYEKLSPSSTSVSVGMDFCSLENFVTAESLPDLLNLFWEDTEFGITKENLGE
Summary of the method: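 Yeast transcription factors, full-length or as DNA-binding domains, were expressed with a GST tag using PURExpress in vitro transcription/translation. At about 100-200 nM they were applied to universal all-10-mer Agilent arrays, double-stranded by primer extension on fresh or once-stripped slides. Fluorescent anti-GST detected bound protein, and masliner normalised the scans. E-scores for ungapped eight-base words, pooled with reverse complements, came from the Universal PBM Analysis Suite.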

Sequence | PBM E-score
ACGGGTCT | -0.324
CCTGTCAG | -0.101
AAGTAGCA | -0.0482
ACTGCGCC | -0.21
ATGGAACC | 0.0146
ATAACAAA | 0.357
ACCTTGTG | -0.12
ACAACTTA | -0.0569
AGACAGGG | -0.249
GTCCGTTA | 0.207
AAAATACA | 0.0898
CGAATAGC | -0.0213
GAAGGGCA | -0.0539
CAGTCACC | -0.251
ACGGCCCA | -0.0167
CAGTCTAG | -0.132
AGTTTCCG | 0.392
ATTGGGCA | -0.248
CTAGGTCA | -0.144
ATCGCTGG | -0.0399
ACGTAGAA | -0.0314
TGAATCAA | 0.273
ATCATCTC | 0.11
GTTCAACA | 0.17
AAACACCA | -0.0681

Sequence | PBM E-score
CACTGCAA | 0.0304
TAAGGTCA | -0.171
AATCGGCG | 0.226
CCATAAGG | -0.264
ACGTCGCT | -0.239
GGTTCCAC | -0.116
CGCCCGGA | 0.264
GTATAGGA | -0.21
GCCCCAGC | -0.26
AAGTTCCC | -0.0932
AGGACTTG | -0.151
GCGAAGGA | -0.111
ATTCCACA | 0.202
AAAGTCTA | 0.0242
GAGAACAA | 0.175
ACTGACGC | -0.217
TGCTGCCA | -0.159
CCCATCAA | -0.00527
CACCTTCC | -0.0129
GGATCCTA | -0.0163
AGCTTTAT | 0.0275
CTCGCGGA | 0.0472
CCATCCAG | -0.103
GACATTGA | 0.0743
AAATAGCA | -0.047

Sequence | PBM E-score
ATTTCCAA | 0.102
CACTAGAC | -0.109
AGCTCACA | -0.113
ACTGCTAA | -0.139
ATAGTGCA | 0.104
ACGAGCGT | -0.166
CGTCTGGA | -0.12
AGCCATGC | -0.176
AGATGGGG | -0.328
AACTTAGA | 0.106
ACACACAA | 0.122
CGAGCGCC | -0.0295
CGAGGACC | -0.0009
AGCTGAGG | -0.11
CCGGTTCG | 0.193
ACCCCTAA | -0.194
ACAAAGGT | 0.0426
ACAAACGT | -0.126
CCAACCGA | 0.155
AGGCCCCA | -0.281
GATGCAGA | -0.139
CTAACGAG | -0.0222
CCTGAACG | 0.0764
GCATATAA | 0.204
CTCGCTCA | 0.162

Sequence | PBM E-score
ATCGGATA | 0.369
CTGCCTTA | -0.244
CACATTGC | -0.0846
CTGGCGCC | -0.00359
CACCCTAC | -0.162
CGTGATCC | -0.0695
CTGAGCTC | 0.00987
CGGGGAGA | -0.186
CCCTAAAG | -0.206
ATACGTGG | -0.08
CGTAGAAG | -0.0183
GGTTTGAC | 0.0318
TAAATCCA | 0.00272
CTTCATTC | -0.172
ATATCTGG | 0.00195
ACTACGAC | 0.0171
CTCCGCAG | -0.136
CGCAAAAG | 0.0528
TATTGCAA | 0.24
CGTACCTA | -0.219
GGAAGCAC | 0.124
AGGGGAAT | 0.0617
CGACTCAC | -0.11
CATATCCC | 0.0121
CTAGAGAA | 0.00696

Looked up above.
PBM E-score, CACTAGAC reads -0.109
PBM E-score, ACGGCCCA reads -0.0167
PBM E-score, ACAACTTA reads -0.0569
PBM E-score, AGACAGGG reads -0.249
PBM E-score, ATAGTGCA reads 0.104
PBM E-score, CCTGAACG reads 0.0764
PBM E-score, TGCTGCCA reads -0.159

Later entries.

Sequence | PBM E-score
CTTAGAGA | -0.0897
AACCTCAG | -0.114
TACCAGGA | 0.0761
AAGCAAGG | 0.0654
ATGTAGCA | -0.101
TAAAGTCA | 0.0728
CAAAAGAC | -0.0595
ACTATATG | 0.0113
TTAGTGAA | -0.022
CAAGGCCC | -0.134
AGAATCGG | 0.204
GAGGATGC | -0.0836
GATGCCCA | 0.124
CAGAGCAC | -0.132
GGGGGCAC | -0.328
GATCTGGC | -0.0225
ATCGGTGG | -0.109
ATCCGATG | 0.327
ATTCACAA | 0.109
ACTAAAGG | -0.019
CCCCTTCC | -0.233
CGCACGCG | -0.181
GAATGGGC | -0.155
CCTAATCC | -0.089
AATAAATC | 0.0601

Sequence | PBM E-score
GATAAGGC | -0.0618
AAAAGGCG | -0.119
GAGTTGAA | -0.066
GTCCCCTA | -0.298
CATACGAA | 0.0676
CTTCCCGC | 0.0247
AGTGAACT | 0.0211
AGGGCCCA | -0.175
ACCCATCA | -0.11
AACTGGCT | -0.223
CGAAGGCC | 0.0172
AGAGCGGG | -0.162
GGCTTGGA | -0.409
CCGATGCG | 0.0553
CGGTACGA | 0.0182
ACCCATTA | -0.126
GCGTATCC | -0.0812
AAGGGGCT | -0.132
CAAGTGTG | 0.00548
GTGCTTGA | 0.00946
CCCACGCG | -0.252
CGAACACG | 0.172
GGCGGACA | 0.0704
AATTGCCG | 0.27
ACTCCCCG | 0.186

Sequence | PBM E-score
GCCAGTTA | -0.0285
AGTCGTAT | -0.13
CGACCCTA | -0.121
CTTAAATA | 0.0274
GGTGACCA | -0.187
AGGTAGCA | -0.299
CTAATTAC | 0.112
GGTAATAA | 0.216
AGCAATAT | 0.0231
AGAGTCAA | -0.151
CGAAGCCG | 0.192
ACATGCTA | -0.0879
CATGGGAA | 0.0355
CTTGTGGA | -0.134
ATGTACGG | -0.0106
CGCGTTTA | -0.00291
AAGGAGAC | -0.147
CGAAGTCG | 0.194
ACCATAGG | -0.267
GAGTTAGA | -0.0539
AATAAAAA | 0.196
GATGGTAA | 0.0112
